Reference: PubChem BioAssay AID1259308 (NCATS, 2017)

- Screen: 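Genes whose loss raises luciferase production in HEK293 cells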 (primary screen)
- Cell system: human HEK293 embryonic kidney cells stably expressing firefly luciferase (HEK-CMV-Luc2-Hygro)
- Knock-down reagent: single siRNA against human genes, 0.8 pmol siRNA per well
- Time to read-out: 72 h
- Measured: 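Reporter luminescence and viable-cell signal on separate replicate plates, given as percent of non-targeting control and median/MAD z-scores, plus per-cell luciferase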
- Scale: total luciferase, z-score and total luciferase, % of control: higher = more reporter protein produced
- Call rule: 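An siRNA counts as active if its total luciferase robust z-score exceeds 3; genes with two or more such siRNAs out of three were retested with fresh siRNAs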
- Meaning of the calls: active = raised luciferase; inactive = no rise
In all, the deposit lists about 59,000 reagents; this is a part drawn at random. In the full data, about 1,510 (2.6%) got an active call. 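Calls use total luciferase alone and ignore viability, so some active siRNAs may act by altering cell number.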 The numbers tell different reagents against one gene apart. Not all columns of the deposit are shown.

| Target gene | reagent no. | total luciferase, z-score | total luciferase, % of control | Call |
| --- | --- | --- | --- | --- |
| OR2A12 (olfactory receptor family 2 subfamily A member 12) | 1 | 1.22 | 106 | inactive |
| OR2A12 (olfactory receptor family 2 subfamily A member 12) | 2 | 0.217 | 86.2 | inactive |
| OR2A12 (olfactory receptor family 2 subfamily A member 12) | 3 | -0.358 | 74.8 | inactive |
| KL (klotho) | 1 | -0.231 | 77.3 | inactive |
| KL (klotho) | 2 | -0.271 | 76.5 | inactive |
| KL (klotho) | 3 | -0.325 | 75.4 | inactive |
| XPNPEP3 (X-prolyl aminopeptidase 3) | 1 | -2.41 | 34 | inactive |
| XPNPEP3 (X-prolyl aminopeptidase 3) | 2 | -0.711 | 67.7 | inactive |
| XPNPEP3 (X-prolyl aminopeptidase 3) | 3 | -0.859 | 64.8 | inactive |
| NELFA (negative elongation factor complex member A) | 1 | 2.79 | 137 | inactive |
| NELFA (negative elongation factor complex member A) | 2 | 1.31 | 108 | inactive |
| NELFA (negative elongation factor complex member A) | 3 | 4.92 | 180 | active |
| APIP (APAF1 interacting protein) | 1 | -0.8 | 66 | inactive |
| APIP (APAF1 interacting protein) | 2 | -0.14 | 79.1 | inactive |
| APIP (APAF1 interacting protein) | 3 | -1.22 | 57.6 | inactive |
| SGK1 (serum/glucocorticoid regulated kinase 1) | 1 | 1.88 | 119 | inactive |
| SGK1 (serum/glucocorticoid regulated kinase 1) | 2 | -0.61 | 69.8 | inactive |
| SGK1 (serum/glucocorticoid regulated kinase 1) | 3 | -0.707 | 67.8 | inactive |
| TEX2 (testis expressed 2) | 1 | -0.0902 | 80.1 | inactive |
| TEX2 (testis expressed 2) | 2 | -0.728 | 67.4 | inactive |
| TEX2 (testis expressed 2) | 3 | 1.13 | 104 | inactive |
| ST7L (suppression of tumorigenicity 7 like) | 1 | -0.683 | 68.3 | inactive |
| ST7L (suppression of tumorigenicity 7 like) | 2 | 0.673 | 95.3 | inactive |
| ST7L (suppression of tumorigenicity 7 like) | 3 | -1.19 | 58.3 | inactive |
| SKIC8 (SKI8 subunit of superkiller complex) | 1 | -0.94 | 63.2 | inactive |
| SKIC8 (SKI8 subunit of superkiller complex) | 2 | -1.17 | 58.5 | inactive |
| SKIC8 (SKI8 subunit of superkiller complex) | 3 | -0.487 | 72.2 | inactive |
| CAMK1G (calcium/calmodulin dependent protein kinase IG) | 1 | -2.65 | 29.2 | inactive |
| CAMK1G (calcium/calmodulin dependent protein kinase IG) | 2 | -0.05 | 80.9 | inactive |
| CAMK1G (calcium/calmodulin dependent protein kinase IG) | 3 | -0.668 | 68.6 | inactive |

Not a retest: entries from further up.
| Target gene | reagent no. | total luciferase, z-score | total luciferase, % of control | Call |
| --- | --- | --- | --- | --- |
| APIP (APAF1 interacting protein) | 2 | -0.14 | 79.1 | inactive |
| APIP (APAF1 interacting protein) | 3 | -1.22 | 57.6 | inactive |
| SGK1 (serum/glucocorticoid regulated kinase 1) | 1 | 1.88 | 119 | inactive |

The results go on:
| Target gene | reagent no. | total luciferase, z-score | total luciferase, % of control | Call |
| --- | --- | --- | --- | --- |
| GABRB2 (gamma-aminobutyric acid type A receptor subunit beta2) | 1 | -1.95 | 43 | inactive |
| GABRB2 (gamma-aminobutyric acid type A receptor subunit beta2) | 2 | -1.09 | 60.3 | inactive |
| GABRB2 (gamma-aminobutyric acid type A receptor subunit beta2) | 3 | 0.311 | 88.1 | inactive |
| PRL (prolactin) | 1 | 1.19 | 106 | inactive |
| PRL (prolactin) | 2 | -0.637 | 69.2 | inactive |
| PRL (prolactin) | 3 | 2.03 | 122 | inactive |
| PUS3 (pseudouridine synthase 3) | 1 | 0.973 | 101 | inactive |
| PUS3 (pseudouridine synthase 3) | 2 | -0.616 | 69.6 | inactive |
| PUS3 (pseudouridine synthase 3) | 3 | -0.323 | 75.5 | inactive |
| C1orf105 (chromosome 1 open reading frame 105) | 1 | 0.617 | 94.2 | inactive |
| C1orf105 (chromosome 1 open reading frame 105) | 2 | -1.43 | 53.4 | inactive |
| C1orf105 (chromosome 1 open reading frame 105) | 3 | -0.996 | 62.1 | inactive |
| LRRC75B (leucine rich repeat containing 75B) | 1 | 1.21 | 106 | inactive |
| LRRC75B (leucine rich repeat containing 75B) | 2 | 1.22 | 106 | inactive |
| LRRC75B (leucine rich repeat containing 75B) | 3 | -0.165 | 78.6 | inactive |
| GDF5 (growth differentiation factor 5) | 1 | -0.644 | 69.1 | inactive |
| GDF5 (growth differentiation factor 5) | 2 | 0.0273 | 82.4 | inactive |
| GDF5 (growth differentiation factor 5) | 3 | 0.262 | 87.1 | inactive |
| CHUK | 1 | 0.292 | 87.7 | inactive |
| CHUK | 2 | 0.242 | 86.7 | inactive |
| CHUK | 3 | -1.75 | 47.1 | inactive |
| ODAD3 (outer dynein arm docking complex subunit 3) | 1 | -0.825 | 65.5 | inactive |
| ODAD3 (outer dynein arm docking complex subunit 3) | 2 | -0.539 | 71.2 | inactive |
| ODAD3 (outer dynein arm docking complex subunit 3) | 3 | -0.171 | 78.5 | inactive |
| COX20 (cytochrome c oxidase assembly factor COX20) | 1 | -0.774 | 66.5 | inactive |
| COX20 (cytochrome c oxidase assembly factor COX20) | 2 | -0.287 | 76.2 | inactive |
| COX20 (cytochrome c oxidase assembly factor COX20) | 3 | -1.3 | 56 | inactive |
